# In publication PMC6054649:
# Sequences of proteins named here, by UniProt entry; tags and fusion partners are left off.
# UniProt P31266: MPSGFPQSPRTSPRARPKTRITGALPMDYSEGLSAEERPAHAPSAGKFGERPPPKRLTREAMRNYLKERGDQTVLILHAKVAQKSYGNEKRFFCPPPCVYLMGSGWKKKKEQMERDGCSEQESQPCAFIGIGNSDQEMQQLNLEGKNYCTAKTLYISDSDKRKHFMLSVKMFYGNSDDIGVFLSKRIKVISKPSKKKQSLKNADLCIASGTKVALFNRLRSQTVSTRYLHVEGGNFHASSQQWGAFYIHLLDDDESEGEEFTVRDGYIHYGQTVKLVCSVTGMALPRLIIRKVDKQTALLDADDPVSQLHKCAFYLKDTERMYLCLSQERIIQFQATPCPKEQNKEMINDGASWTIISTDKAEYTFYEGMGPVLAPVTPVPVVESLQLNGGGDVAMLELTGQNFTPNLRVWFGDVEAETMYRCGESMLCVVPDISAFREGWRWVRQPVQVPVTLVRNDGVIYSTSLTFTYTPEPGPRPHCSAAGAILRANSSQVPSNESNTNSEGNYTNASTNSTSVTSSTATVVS
# No constants are given. Whether binding was seen depends on the method and setting. Binding seen in cells or lysates may run through a third protein. Some binding calls cover weakened binding; strength is not graded here. Where a sequence is shown, tags or fusion partners need not be part of it.
# Target: T1, Ptf1a-Flag (flag-tagged Ptf1a) (UniProt Q9QX98)
# T1 sequence: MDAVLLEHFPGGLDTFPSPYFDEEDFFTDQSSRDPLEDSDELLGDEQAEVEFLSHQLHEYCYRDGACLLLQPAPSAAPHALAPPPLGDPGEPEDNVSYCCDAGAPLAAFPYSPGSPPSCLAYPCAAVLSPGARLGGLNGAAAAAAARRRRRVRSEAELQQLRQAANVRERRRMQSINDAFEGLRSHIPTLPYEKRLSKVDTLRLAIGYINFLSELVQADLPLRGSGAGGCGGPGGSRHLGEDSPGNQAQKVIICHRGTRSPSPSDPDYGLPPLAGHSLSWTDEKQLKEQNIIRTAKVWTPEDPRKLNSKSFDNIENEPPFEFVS
# Test: co-IP; Lysates of MEFs infected with Ptf1a-Flag (or control GFP) lentiviruses, collected at day 12, were incubated with anti-Flag resin at 4 °C overnight, washed with Tris-buffered saline and eluted with 3x Flag peptide; western blot with anti-Rbpj
substance,measurement,value
Rbpj (from UniProt P31266 1-526),binding,binds
